Data taken from paper PMC2614475.
Results are given in words; binding and its absence hold for the method and conditions named. For part of these data: Binding can be weak; no strength is given. Where a sequence is shown, tags or fusion partners need not be part of it. For part of these data: Binding seen in cells or lysates may run through a third protein.

Sequences of proteins named here, by UniProt entry; tags and fusion partners are left off. A change or cut given only in a name is not applied to a line headed by its entry.
UniProt Q9Z340: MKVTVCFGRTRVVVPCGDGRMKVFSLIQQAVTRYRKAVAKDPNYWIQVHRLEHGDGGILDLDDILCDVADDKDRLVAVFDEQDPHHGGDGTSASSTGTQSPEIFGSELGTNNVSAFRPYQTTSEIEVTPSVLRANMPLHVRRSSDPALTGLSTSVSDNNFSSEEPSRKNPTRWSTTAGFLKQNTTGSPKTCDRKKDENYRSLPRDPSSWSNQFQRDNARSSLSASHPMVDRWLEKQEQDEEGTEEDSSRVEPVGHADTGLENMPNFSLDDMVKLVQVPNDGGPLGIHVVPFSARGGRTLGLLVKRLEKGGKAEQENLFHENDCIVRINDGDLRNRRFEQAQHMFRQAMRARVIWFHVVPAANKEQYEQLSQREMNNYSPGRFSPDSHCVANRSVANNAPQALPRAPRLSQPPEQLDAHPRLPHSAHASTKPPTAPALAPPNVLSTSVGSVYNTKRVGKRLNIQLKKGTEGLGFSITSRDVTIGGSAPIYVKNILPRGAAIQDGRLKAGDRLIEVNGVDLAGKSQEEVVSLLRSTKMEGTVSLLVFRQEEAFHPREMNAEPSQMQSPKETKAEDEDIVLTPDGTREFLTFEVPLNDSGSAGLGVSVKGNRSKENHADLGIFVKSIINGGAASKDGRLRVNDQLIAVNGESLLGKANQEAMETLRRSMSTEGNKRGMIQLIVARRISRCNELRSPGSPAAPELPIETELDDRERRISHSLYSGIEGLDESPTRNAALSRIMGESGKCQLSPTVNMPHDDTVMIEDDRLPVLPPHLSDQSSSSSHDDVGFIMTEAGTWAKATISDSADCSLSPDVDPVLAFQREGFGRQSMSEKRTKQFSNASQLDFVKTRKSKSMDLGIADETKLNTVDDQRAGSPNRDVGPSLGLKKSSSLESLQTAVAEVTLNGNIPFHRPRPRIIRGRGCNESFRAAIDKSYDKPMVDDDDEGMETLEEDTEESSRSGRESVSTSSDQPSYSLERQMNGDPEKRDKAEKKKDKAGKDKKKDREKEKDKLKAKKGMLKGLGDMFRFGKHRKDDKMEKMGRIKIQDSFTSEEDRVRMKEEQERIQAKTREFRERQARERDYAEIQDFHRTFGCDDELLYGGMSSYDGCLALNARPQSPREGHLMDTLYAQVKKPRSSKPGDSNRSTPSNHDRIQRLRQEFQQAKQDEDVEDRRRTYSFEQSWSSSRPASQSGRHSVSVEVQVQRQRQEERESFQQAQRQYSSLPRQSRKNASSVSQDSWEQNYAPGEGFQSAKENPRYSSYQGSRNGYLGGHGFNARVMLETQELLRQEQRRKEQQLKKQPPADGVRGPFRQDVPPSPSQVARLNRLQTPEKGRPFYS

Key:
[1] = biological target: T1, glutathione S-transferase fused with the cytoplasmic tail of nephrin (GST–nephrinICD) (human) (UniProt O60500); assay: pull-down; GST–nephrinICD-immobilized beads incubated 2 h at 4°C with 293T cell lysate expressing T7-tagged PAR3 constructs; 25 mM Tris-HCl pH 8.0, 100 mM NaCl, 5 mM EDTA, 1% TritonX-100; immunoblotting and CBB staining; only the target purified
T1 sequence: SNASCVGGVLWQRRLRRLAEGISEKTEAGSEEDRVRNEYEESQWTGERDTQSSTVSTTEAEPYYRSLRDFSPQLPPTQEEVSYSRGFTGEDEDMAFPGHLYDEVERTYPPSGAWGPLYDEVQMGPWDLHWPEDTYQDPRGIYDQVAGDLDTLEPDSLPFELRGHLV

[2] = biological target: the three PDZ domains of PAR3 fused with maltose binding protein (MBP–PDZ123) (rat) (UniProt Q9Z340); assay: pull-down; purified MBP–PDZ123 incubated with GST-fused nephrin constructs, each at a final concentration of 50 nM; text says MBP–PDZ123 was immobilized; immunoblotting and CBB staining; both purified

T7-tagged PAR3 mutant mutated in the third PDZ domain (from UniProt Q9Z340)
binding [1]: no binding

SLPFELRGHLV (peptide, UniProt O60500 1231-1241) [GST–nephrin CT11]
binding [2]: binds

EAEPYYRSLRDFSPQLPPTQEEVSYSRGFTG (domain or fragment, UniProt O60500 1134-1164) [GST–nephrin ICD-A]
binding [2]: binds
